These are yes or no findings as the source states them, for the method shown. Some entries that bind do so weakly or less than the wild type. Where a sequence is shown, tags or fusion partners need not be part of it.
Target: T1, TAP-tagged Med7 (fission yeast (S. pombe)) (UniProt O60104)
T1 sequence: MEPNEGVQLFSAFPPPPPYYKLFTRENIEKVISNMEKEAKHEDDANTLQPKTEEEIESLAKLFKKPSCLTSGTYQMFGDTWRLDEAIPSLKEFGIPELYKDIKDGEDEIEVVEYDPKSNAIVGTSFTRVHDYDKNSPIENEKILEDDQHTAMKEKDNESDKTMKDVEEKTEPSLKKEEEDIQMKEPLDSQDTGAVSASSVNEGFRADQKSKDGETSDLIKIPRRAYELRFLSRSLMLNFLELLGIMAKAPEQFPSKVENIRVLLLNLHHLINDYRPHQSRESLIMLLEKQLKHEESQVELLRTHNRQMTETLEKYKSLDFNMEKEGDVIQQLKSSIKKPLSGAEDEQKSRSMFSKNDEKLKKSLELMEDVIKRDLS
Assay: depletion of extract on IgG-Sepharose, Western blot of the depleted extract; whole-cell extract of the TAP-tagged Med7 strain at 0.5 M potassium acetate, IgG-Sepharose, 30 min at room temperature then 2 h at 4 °C; supernatant blotted

binding: binds
B1: Med17 (protein, UniProt P87306 1-545)
chain: MAEEANKDADISSLSLSLDPEIIGGQNNFLENNLQQIFQKIIQERGPFRDLKEEDLQKELQKESIKDESSAKSSETENVLEFATLDSKRNVNDTEVESMDSQAYKKELIEQIMIAQTECSLALDMTSLLLSKFKENSIETISPFLKSTVPPSSLQFSRSQPPESKESDATLAKCWKEKSLTSSCKFLFEAKERLTSVVETEHEYYTELVKVKEASWPLFNSQGSNHLSVQYSCLGGISLGLGLIRMKPESKSFEVQSSLLYSQAALKISILNKDRDEIGSSTWSWPSQNCNSVLLKDIYKLQEILFEMDIWNSLLQEAQSCGNQGVNFTGDEILVPISDDHVVRITLETSSKNTESGFTEDKKSNEDTSTNFVTIKQEKELLKCLCDTLNAIAHILFLKHCRKSDRRSQQPELYMAIDANAPLILRPLIFYYNLNQESLEFQRWLKQRDISFKFMPNYPWEKAKDFLELENSLSINRLSISWRIMVSNFEPAIFIQHTPTLHGTDKSVWRCKDQYSSNQFSSLKNVCQYIEHHINSLSRRSKKTE

— paper PMC8871863, “Initiator-Directed Transcription: Fission Yeast Nmtl Initiator Directs Preinitiation Complex Formation and Transcriptional Initiation” (Genes, 2022)
